Experimental findings from US20240082172A1, “METHOD FOR DEPOT CREATION DURING TRANSDERMAL DRUG DELIVERY” (Corium, Inc., priority 2017, published 2024) are described below.

The conditions of the data set: human cadaver skin, FIG. 2.

Consider `COc1cc2c(cc1OC)C(=O)C(CC1CCN(Cc3ccccc3)CC1)C2` (stereo not drawn) [Donepezil, 2,3-Dihydro-5,6-dimethoxy-2-[[1-(phenylmethyl)-4-piperidinyl]methyl]-1H-inden-1-one], for which, for the setting “patch of Example 7 adhesive matrix (5 cm^2), 32° C., at end of 48 hour patch contact”, the “skin flux of donepezil” value is recorded as “about 6.0 μg/cm^2·hr”. Also, the “flux of donepezil through the skin” value (patch of Example 7 adhesive matrix, by just over 72 hours, patch removed at 48 hours) is on record as “about 2.0 μg/cm^2·hr”. The “period donepezil continued to be delivered across the skin after removal of the patch” value (patch of Example 7 adhesive matrix, patch removed at the 48 hour time point) was 24 to 72 h.
